Experimental data published in PMC4493782.
Results are given in words; binding and its absence hold for the method and conditions named. For some of these results: In cells and extracts the contact can be indirect. Some binding calls cover weakened binding; strength is not graded here. Sequences can lack the tags named with a protein.

Protein sequences, listed by entry. Tags and fused reporters are not part of them.
UniProt Q9SJ66: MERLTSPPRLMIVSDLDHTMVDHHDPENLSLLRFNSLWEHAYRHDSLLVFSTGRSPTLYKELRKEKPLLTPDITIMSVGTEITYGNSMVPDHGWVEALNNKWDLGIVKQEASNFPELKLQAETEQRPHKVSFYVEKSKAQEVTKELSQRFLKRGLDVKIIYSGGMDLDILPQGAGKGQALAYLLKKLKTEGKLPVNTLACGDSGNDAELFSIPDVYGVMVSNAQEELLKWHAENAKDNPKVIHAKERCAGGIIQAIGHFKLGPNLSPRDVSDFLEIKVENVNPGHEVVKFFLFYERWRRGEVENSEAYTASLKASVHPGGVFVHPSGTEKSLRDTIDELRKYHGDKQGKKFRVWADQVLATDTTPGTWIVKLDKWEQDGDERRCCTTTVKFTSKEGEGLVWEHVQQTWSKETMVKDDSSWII

Columns and labels:
[1] = target: T1, AtSPS5b (At5g20280), sucrose phosphate synthase, fused to the GAL4 DNA-binding domain (Arabidopsis thaliana) (UniProt Q94BT0); experiment: two-hybrid; ProQuest system, S. cerevisiae MaV203; AtSPS on the GAL4 DNA-binding domain (pDEST32), AtSPP on the GAL4 activation domain (pDEST22); growth on SC-Leu-Trp-His+10 mM 3AT, no growth on 0.2% 5FOA, X-gal colour
T1 sequence: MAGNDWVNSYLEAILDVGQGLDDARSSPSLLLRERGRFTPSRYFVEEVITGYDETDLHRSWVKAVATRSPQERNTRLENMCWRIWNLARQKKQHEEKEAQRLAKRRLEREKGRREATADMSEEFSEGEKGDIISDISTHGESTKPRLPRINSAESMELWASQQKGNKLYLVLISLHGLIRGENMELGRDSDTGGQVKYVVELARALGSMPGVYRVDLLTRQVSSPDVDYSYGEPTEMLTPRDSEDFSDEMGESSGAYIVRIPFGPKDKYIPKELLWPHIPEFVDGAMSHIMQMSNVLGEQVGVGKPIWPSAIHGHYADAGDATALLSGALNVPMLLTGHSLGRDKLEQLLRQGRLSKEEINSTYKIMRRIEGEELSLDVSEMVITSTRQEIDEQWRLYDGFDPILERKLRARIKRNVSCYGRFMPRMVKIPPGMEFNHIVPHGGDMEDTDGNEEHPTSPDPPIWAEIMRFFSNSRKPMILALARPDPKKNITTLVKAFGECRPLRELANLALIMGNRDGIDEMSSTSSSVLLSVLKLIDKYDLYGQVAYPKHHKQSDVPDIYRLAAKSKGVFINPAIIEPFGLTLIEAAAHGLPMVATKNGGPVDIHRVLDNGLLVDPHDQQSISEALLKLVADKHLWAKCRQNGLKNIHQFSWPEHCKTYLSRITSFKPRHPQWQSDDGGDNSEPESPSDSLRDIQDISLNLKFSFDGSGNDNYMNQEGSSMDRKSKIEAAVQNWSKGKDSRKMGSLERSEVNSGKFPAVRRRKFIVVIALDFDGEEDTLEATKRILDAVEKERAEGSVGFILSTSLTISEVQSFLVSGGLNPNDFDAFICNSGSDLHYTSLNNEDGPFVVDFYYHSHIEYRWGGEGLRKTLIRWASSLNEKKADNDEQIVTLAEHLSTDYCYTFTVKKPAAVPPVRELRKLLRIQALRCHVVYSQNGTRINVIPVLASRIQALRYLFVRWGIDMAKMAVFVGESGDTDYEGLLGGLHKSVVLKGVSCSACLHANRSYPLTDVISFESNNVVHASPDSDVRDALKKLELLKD

[2] = target: T2, AtSPS-hRLUC (C-terminally tagged Renilla luciferase fusion of AtSPS, At5g20280) (Arabidopsis thaliana) (UniProt Q94BT0); experiment: FRET or BRET; in planta BRET in double transgenic Arabidopsis seedlings of the Atsps- mutant background; 1 uM coelenterazine; yellow/blue luminescence ratio against RLUC alone
T2 sequence: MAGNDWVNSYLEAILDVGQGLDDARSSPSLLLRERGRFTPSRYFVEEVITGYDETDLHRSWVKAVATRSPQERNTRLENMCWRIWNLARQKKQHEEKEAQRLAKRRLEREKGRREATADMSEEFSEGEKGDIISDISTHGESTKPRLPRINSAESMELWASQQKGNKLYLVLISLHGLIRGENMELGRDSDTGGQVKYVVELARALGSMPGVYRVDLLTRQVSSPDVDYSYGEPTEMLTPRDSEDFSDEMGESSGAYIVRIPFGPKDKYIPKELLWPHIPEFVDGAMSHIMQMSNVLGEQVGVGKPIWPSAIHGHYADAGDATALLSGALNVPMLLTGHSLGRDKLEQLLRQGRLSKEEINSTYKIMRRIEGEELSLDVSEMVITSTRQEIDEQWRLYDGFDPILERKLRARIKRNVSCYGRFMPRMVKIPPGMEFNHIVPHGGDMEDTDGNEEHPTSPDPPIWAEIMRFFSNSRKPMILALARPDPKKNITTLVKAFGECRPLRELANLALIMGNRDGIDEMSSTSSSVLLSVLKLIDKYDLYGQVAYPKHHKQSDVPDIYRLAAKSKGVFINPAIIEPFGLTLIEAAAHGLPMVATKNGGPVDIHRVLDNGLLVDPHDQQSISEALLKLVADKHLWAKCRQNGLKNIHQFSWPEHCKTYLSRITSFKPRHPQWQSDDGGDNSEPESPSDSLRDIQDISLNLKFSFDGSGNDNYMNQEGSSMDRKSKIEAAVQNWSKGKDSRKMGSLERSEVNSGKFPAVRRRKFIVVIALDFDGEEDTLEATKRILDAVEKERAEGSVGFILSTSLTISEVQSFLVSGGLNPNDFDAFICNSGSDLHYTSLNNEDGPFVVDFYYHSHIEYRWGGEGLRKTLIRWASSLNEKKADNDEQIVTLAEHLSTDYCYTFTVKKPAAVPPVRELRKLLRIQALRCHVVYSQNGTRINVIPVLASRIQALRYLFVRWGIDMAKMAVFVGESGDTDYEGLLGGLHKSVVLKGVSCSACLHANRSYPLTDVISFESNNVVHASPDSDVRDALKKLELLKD

[3] = target: T3, hRLUC-AtSPS (N-terminally tagged Renilla luciferase fusion of AtSPS, At5g20280) (Arabidopsis thaliana) (UniProt Q94BT0); experiment: FRET or BRET; in planta BRET in double transgenic Arabidopsis seedlings of the Atspp- mutant background; 1 uM coelenterazine; yellow/blue luminescence ratio against RLUC alone
T3 sequence: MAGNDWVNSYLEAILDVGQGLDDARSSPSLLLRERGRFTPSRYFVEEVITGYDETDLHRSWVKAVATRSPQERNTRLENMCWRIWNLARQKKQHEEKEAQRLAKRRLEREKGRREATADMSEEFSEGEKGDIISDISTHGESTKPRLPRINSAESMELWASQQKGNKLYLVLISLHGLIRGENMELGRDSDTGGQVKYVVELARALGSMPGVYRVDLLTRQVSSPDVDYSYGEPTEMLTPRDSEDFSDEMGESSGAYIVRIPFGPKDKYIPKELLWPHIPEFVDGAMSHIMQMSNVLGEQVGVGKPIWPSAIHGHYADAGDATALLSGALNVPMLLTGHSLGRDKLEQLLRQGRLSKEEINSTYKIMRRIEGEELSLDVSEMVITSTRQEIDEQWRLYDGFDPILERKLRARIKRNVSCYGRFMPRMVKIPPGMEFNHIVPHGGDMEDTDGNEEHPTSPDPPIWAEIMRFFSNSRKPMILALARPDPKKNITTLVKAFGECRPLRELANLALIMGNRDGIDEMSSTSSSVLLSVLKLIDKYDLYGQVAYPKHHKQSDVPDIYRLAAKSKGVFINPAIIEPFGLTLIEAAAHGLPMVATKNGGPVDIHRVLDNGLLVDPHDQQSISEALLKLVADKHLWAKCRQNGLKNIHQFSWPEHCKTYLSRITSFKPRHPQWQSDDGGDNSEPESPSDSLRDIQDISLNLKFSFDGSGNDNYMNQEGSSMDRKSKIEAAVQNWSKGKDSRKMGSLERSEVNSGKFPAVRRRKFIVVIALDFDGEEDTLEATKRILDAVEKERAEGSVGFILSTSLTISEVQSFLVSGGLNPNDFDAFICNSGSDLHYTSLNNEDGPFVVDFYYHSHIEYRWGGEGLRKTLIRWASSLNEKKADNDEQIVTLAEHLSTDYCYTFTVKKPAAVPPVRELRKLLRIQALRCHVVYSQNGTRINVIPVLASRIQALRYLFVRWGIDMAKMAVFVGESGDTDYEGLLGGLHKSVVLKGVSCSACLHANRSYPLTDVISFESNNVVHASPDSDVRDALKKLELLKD

[4] = target: T4, YN-tagged AtSPS (At5g20280) (Arabidopsis thaliana) (UniProt Q94BT0); experiment: split reporter; BiFC with YN and YC fragments of YFP in transiently transformed N. tabacum leaf epidermal cells; YFP fluorescence 48 h to 65 h after infiltration
T4 sequence: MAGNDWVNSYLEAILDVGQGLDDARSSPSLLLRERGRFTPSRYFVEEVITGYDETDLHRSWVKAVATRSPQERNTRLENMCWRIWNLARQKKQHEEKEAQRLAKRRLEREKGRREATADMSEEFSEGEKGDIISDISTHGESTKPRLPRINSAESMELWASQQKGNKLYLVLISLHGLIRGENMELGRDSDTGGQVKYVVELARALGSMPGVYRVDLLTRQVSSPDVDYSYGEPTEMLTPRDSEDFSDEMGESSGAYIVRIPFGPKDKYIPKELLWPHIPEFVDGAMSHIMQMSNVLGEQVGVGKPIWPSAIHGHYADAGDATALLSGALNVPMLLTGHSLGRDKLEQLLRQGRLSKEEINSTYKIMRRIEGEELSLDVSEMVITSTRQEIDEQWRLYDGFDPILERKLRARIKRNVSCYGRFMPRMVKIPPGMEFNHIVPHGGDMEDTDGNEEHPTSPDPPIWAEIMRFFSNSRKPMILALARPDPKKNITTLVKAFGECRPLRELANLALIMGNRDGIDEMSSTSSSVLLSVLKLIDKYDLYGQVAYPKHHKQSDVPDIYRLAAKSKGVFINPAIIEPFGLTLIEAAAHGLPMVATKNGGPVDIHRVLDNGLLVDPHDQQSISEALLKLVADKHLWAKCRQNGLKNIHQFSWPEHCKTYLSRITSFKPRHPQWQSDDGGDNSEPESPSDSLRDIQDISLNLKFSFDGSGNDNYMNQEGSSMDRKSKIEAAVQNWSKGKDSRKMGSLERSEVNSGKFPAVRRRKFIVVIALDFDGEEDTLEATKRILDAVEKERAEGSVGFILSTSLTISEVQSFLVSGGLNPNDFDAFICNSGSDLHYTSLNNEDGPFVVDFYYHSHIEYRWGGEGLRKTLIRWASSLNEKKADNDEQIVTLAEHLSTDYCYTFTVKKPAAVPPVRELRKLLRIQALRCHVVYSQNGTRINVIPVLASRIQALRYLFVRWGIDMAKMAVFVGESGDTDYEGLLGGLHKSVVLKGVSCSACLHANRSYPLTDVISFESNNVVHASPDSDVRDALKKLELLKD

Molecule | binding [4] | further results
AtSPP (At2g35840), sucrose phosphate phosphatase, fused to the GAL4 activation domain (from UniProt Q9SJ66 1-422) (enzyme) | – | binding [1]: binds
AtSPP-YFP (C-terminally YFP-tagged AtSPP, At2g35840) (from UniProt Q9SJ66 1-422) (enzyme) | – | binding [2]: binds; binding [3]: binds
YC-tagged AtSPP2 (At2g35840) (from UniProt Q9SJ66 1-422) (enzyme) | binds | –
YC-tagged AtSPP1 (At1g51420) (enzyme, UniProt Q9C8J4 1-423) MERLTSPPRLMIVSDLDETMVDHHKDPENLALLRFNSLWEDAYRHDSLLVFSTGRAQTMYKKLRKEKPLLTPDVIITSVGTEIAYGNSMVPDDNWVEILNKKWDRGIVQEETSKFPELTLQGETEQRPHKLSFNIDKSKVKAVTKELSPRLEKRGVDVKFIFSGGNAFDVLAKGGGKGQALAYLLKKLKTEGKLPINTLACGDSGNDTELFTIPNVYGVMVSNAQEELLEWYAENAKDNANIIHASERCAGGITQAIGHFKLGPNLSPRDVSDFLECKADNVNPGHEVVKFFLFYERWRRGEVENCTTYTSSLKASCHPSGVFVHPSGAEKSLRDTIDELGKYYGDKKGKKFRVWTDQVLATDTTPGTWIVKLDKWEQTGDERKCCTTTVKFTSKEGEGFVWEHVQQIWSEETEIKDDSNWII | binds | –
YC-tagged AtSPP3(3a) (At3g54270) (enzyme, UniProt Q93WU4 1-425) MDRLEGPPRLILVADLDCTLVDHDDPENNDLLRFNALWEAHYRHDSLLVYCTGRSFSSYSSLRKKRPLLTPDIAVTSVGSEIVYGGGESTVSDVVWTARLDYKWNRDIVVEETLKFPKLEPQPDKSQEEHKVSFFVGREDAVEIMKVLPGILEERGVDVKLVYSNGYAFDVLPRGAGKQGALTYLLDKLDIEGKQPSNTLVCGDSGNDAELFNISDVYGVMVSNSHEELLQWYEENAKDNPKIFHASERCGAGMIEAIQRFNLGPNVSPRDVMDTENFHGESLNPAHEVVQFYLFYERWRCGEVEKSDKYLQNLKSLSSPLGIFVHPSGVEKPIHEWIDEMENLYGDGKEKKFRIWLDNVTSSHISSDTWLAKFVKHELSEGKVRSCSTKVLLSYKEEKQRLTWMHIHQSWLDESSSDDQEKWIF | binds | –
YC-tagged AtSPP4(3b) (At3g52340) (enzyme, UniProt Q93XN8 1-423) MERLISHPPLMIVSDLDHTMVDHQDHENLSLLRFNSLWEYAYRRDSLLVFSTARSPVLYKELRKEKPLLTPDIIITSIGTEIAFGNSMVPDHAWVESLNSCKWNREIVLEETSKFPELTLQPKTEQRLHKVSFYIDEGKGEALTKELSQLLEKRGLDVKIIYSWGKNVDVIPRGAGKGEALEYLLKKLQAEGIFPVNTLACGDSEHDAELFSIPDVHGVMVSNSQEELLKWRSENALNNLKVIHSTERCADGIIQAIGHFNLGPDLSPRDVSEFLDRKMDNVNPGHEVVRFYLFYERLRRGEIKNYETYIASFKDSCLHAAVLFHPSGAEKSLRDTIDELKKCYGDKRGKKFWVWVDQVLVTDTIPGKWIVKFDKWEQCEDESQCCKTTVEFTSKGGDLVWEKVKQIWSEESKVKDDNSSWIL | binds | –
